In the supplement of paper PMC12889115:
The other results are listed elsewhere or left out. These are raw signals, not scaled to a control.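 In the initial screen, polymyxin B was used at a concentration that permeabilizes Salmonella's outer membrane but not its inner membrane. Maximum growth was set by DMSO wells with or without polymyxin B. Since plates varied, data were ranked per plate, and compounds giving the lowest OD600 advanced as hits.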

System: Salmonella enterica serovar Typhimurium SL1344
Experiment: bacterial growth OD600 after 18 h with compound and polymyxin B; higher = more bacterial growth (less inhibition)
Conditions: 50 µM, Mueller-Hinton broth

SMILES: CCOC(c1ccccc1)c1ccc2c(c1)CN(C1CCC1)CCO2 (stereo unspecified)
- bacterial growth OD600 (polymyxin B 0.75 µg/mL): 0.718

SMILES: Cc1cccc(-c2ccc(NC(=O)C3CCN(Cc4nccn4C)CC3)cc2)c1
- bacterial growth OD600 (polymyxin B 0.75 µg/mL): 0.587

SMILES: O=C(Nc1cccc(-n2cccn2)c1)C1CCCN1C(=O)C1CC1 (stereo unspecified)
- bacterial growth OD600 (polymyxin B 1 µg/mL): 0.941

SMILES: C=CCNC(=O)C1CCCN(c2nc(-c3ccccc3)nc3c2CCC3)C1 (stereo unspecified)
- bacterial growth OD600 (polymyxin B 0.75 µg/mL): 0.575

SMILES: CCOC(=O)C1(CCOC)CCCN(Cc2c(C)cc(C)cc2-n2cccn2)C1 (stereo unspecified)
- bacterial growth OD600 (polymyxin B 0.75 µg/mL): 0.837

SMILES: Cc1cc(CN(C)C(=O)C2(N3CCCCC3)Cc3ccccc3C2)n[nH]1
- bacterial growth OD600 (polymyxin B 0.75 µg/mL): 0.004

SMILES: Cc1ccccc1C1(CC(=O)N2CCN(C(C)C)CC2)CC(=O)N(Cc2cccnc2)C1=O (stereo unspecified)
- bacterial growth OD600 (polymyxin B 0.75 µg/mL): 0.816

SMILES: C=C(C)CN(CC)C(=O)c1cc(Cn2c(C)nc3ccccc32)[nH]n1
- bacterial growth OD600 (polymyxin B 1 µg/mL): 0.924

SMILES: CCNC(=O)c1cn(CC(C)C)cc(C(=O)NCc2ccccc2OC)c1=O
- bacterial growth OD600 (polymyxin B 0.75 µg/mL): 0.773

SMILES: CC(=O)c1cccc(OCc2cc(C(=O)NCC3CCCCO3)n[nH]2)c1 (stereo unspecified)
- bacterial growth OD600 (polymyxin B 1 µg/mL): 0.989

SMILES: CCOC(=O)C1(CCOc2ccccc2)CCCN(C(=O)c2scc3c2OCCO3)C1 (stereo unspecified)
- bacterial growth OD600 (polymyxin B 1 µg/mL): 0.021

SMILES: O=C1CCN(C(=O)CC2c3ccccc3CCc3ccccc32)CCN1
- bacterial growth OD600 (polymyxin B 1 µg/mL): 0.962

SMILES: CN(Cc1cnn(C)c1)CC1CCN(CCc2ccc(Cl)cc2)CC1
- bacterial growth OD600 (polymyxin B 1 µg/mL): 0.818

SMILES: COc1cccc(CCC2CCCN(C3CCN(C(C)=O)CC3)C2)c1 (stereo unspecified)
- bacterial growth OD600 (polymyxin B 0.75 µg/mL): 0.875

SMILES: CN1CCCC(CN(CCc2ccccc2)C(=O)CCc2cccnc2)C1 (stereo unspecified)
- bacterial growth OD600 (polymyxin B 1 µg/mL): 0.842

SMILES: COc1ccc(F)c(CC2(CCC(=O)N3CCN(Cc4ccccc4OC)CC3)CCC(=O)N2)c1 (stereo unspecified)
- bacterial growth OD600 (polymyxin B 0.75 µg/mL): 0.833

SMILES: COc1cccc(CC(C2CCN(C(=O)c3ccccc3F)CC2)N(C)C(=O)c2cccnc2)c1 (stereo unspecified)
- bacterial growth OD600 (polymyxin B 0.75 µg/mL): 0.925

SMILES: COc1ccccc1C(C)N(C)Cc1nc(-c2ccc(C(F)(F)F)cc2)no1 (stereo unspecified)
- bacterial growth OD600 (polymyxin B 1 µg/mL): 0.499

SMILES: CN1CCC(NC2CCN(c3ccc(C(=O)N4CCc5ccccc5C4)cc3)CC2)CC1
- bacterial growth OD600 (polymyxin B 0.75 µg/mL): 0.779

SMILES: COCc1c(C(=O)NCc2ccc(C)cc2)cnn1-c1nccc(-c2cc(C)sc2C)n1
- bacterial growth OD600 (polymyxin B 0.75 µg/mL): 0.001

SMILES: CCO[C@H]1[C@H](NC(=O)c2ccco2)c2ccccc2C12CCN(C(=O)c1cscn1)CC2
- bacterial growth OD600 (polymyxin B 0.75 µg/mL): 0.713

SMILES: CC(C)CNc1ccc(C(=O)NCc2noc(C(C)C)n2)cn1
- bacterial growth OD600 (polymyxin B 0.75 µg/mL): 0.788

SMILES: Cc1ncc2c(c1CNC(=O)/C=C/c1cccs1)CCN(C(=O)CCC(=O)c1ccc(F)cc1)C2
- bacterial growth OD600 (polymyxin B 0.75 µg/mL): 0.83

SMILES: O=C(Nc1cnn(-c2ccc(C(=O)N3CCOc4ccccc4C3)cc2)c1)c1cccnc1
- bacterial growth OD600 (polymyxin B 0.75 µg/mL): 0.37

SMILES: Cc1ccccc1Oc1ncccc1CNCc1c[nH]cn1
- bacterial growth OD600 (polymyxin B 1 µg/mL): 1.11

SMILES: COc1ccc(CN2CCN(Cc3ccc(C)o3)CC2CCO)cc1C (stereo unspecified)
- bacterial growth OD600 (polymyxin B 1 µg/mL): 1.05

SMILES: CN(C)c1ccccc1C(=O)NCC1CCC2(CCN(Cc3ccccc3)CC2)O1 (stereo unspecified)
- bacterial growth OD600 (polymyxin B 0.75 µg/mL): 0.85

SMILES: CCOc1ccccc1CN1CCN(Cc2ccc3nsnc3c2)CC1CCO (stereo unspecified)
- bacterial growth OD600 (polymyxin B 1 µg/mL): 1.06

SMILES: COc1ccc(CN2CCN(C3CCCC3)C(CCO)C2)c(OC)c1C (stereo unspecified)
- bacterial growth OD600 (polymyxin B 1 µg/mL): 0.809

SMILES: COC(=O)C1CCCCN1C(=O)c1c(OC)cc(=O)n2c1CCN(Cc1ccc3c(c1)OCO3)CC2 (stereo unspecified)
- bacterial growth OD600 (polymyxin B 0.75 µg/mL): 0.874

SMILES: COC(=O)[C@@H]1CCCN1C(=O)CC1(c2ccccc2C)CC(=O)N(Cc2ccncc2)C1=O (stereo partly specified)
- bacterial growth OD600 (polymyxin B 0.75 µg/mL): 0.957
